According to publication PMC7819943, “Rice protein-binding microarrays: a tool to detect cis-acting elements near promoter regions in rice”:
Some of the results follow.

Chains of the proteins cited; added tags and fusions are not shown.
UniProt Q0JBA9, entry or part of it: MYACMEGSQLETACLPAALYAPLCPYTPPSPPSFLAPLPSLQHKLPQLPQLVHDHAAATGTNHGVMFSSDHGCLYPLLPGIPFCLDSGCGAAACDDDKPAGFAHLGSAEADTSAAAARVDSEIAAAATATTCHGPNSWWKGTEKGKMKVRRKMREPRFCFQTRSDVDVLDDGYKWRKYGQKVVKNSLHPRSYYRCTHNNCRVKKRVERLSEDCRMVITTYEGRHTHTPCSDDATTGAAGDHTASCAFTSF

target: OsWRKY34 (Oryza sativa, UniProt Q0JBA9 1-250); experiment: protein-binding microarray (RPBM); PBS, 2% BSA, 51.3 ng/ul salmon testes DNA, 50 uM zinc acetate, 200 nM TF, 25 C, 1 h; high values mean tight binding; conditions: protein: recombinant; tags: N-terminal polyhistidine and DsRed monomer fusion (pET32a); label: CyDye5-dUTP incorporated in the synthesized complementary strand; 3' TTTTT single-stranded linker to array surface; dsDNA, one strand shown
Method in brief: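 Using Ni–NTA, transcription factors fused N-terminally to polyhistidine and DsRed were purified after expression in E. coli BL21-CodonPlus. These were incubated at 200 nM with a blocked, double-stranded custom Agilent array for 1 h at 25 °C in a buffer containing 50 µM zinc acetate, and the array was washed. The binding signal is per-feature fluorescence intensity (arbitrary units) on an Axon 4000B scanner.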

Sequence	binding signal
CGCCGCGGCCCCGTCACACCTCATCCTCTTCGCTTGGCCTCGGAGTCACCTAGTGCAG	8740 fluorescence intensity (a.u.)
CAAAGCTTTGTTCTTCTTGCTCTTCTTATACTCGAGCAGCCGGAGTCACCTAGTGCAG	8230 fluorescence intensity (a.u.)
ACCCTGATATCATATTCGTATTCGTATTTGGGAGAAAATACGGAGTCACCTAGTGCAG	8080 fluorescence intensity (a.u.)
GCCGTGCTCTGCCCCTGTGCTACATAACCAGCTTCCACTCCGGAGTCACCTAGTGCAG	9350 fluorescence intensity (a.u.)
AAATGGTTTATTATCTGACTCATACAACATGTGCTGCCAACGGAGTCACCTAGTGCAG	9500 fluorescence intensity (a.u.)
TCGCCTTTCGCCCACCGGCCTCTTTTGGAAAATGTCGCACCGGAGTCACCTAGTGCAG	9880 fluorescence intensity (a.u.)
GGTTCTTACTGTTGTACAGTTACTATAGGCCGACGTACGGCGGAGTCACCTAGTGCAG	10300 fluorescence intensity (a.u.)
CCAGTCCCAGCCACCCCACCAACACCAAGCTTTCGCGTCTCGGAGTCACCTAGTGCAG	10400 fluorescence intensity (a.u.)
CTGCCGCTGTTGGATCTCCACTGATTCCATCGATTCCACCCGGAGTCACCTAGTGCAG	8940 fluorescence intensity (a.u.)
AGAACTTCTCGTCTTCTCAATTTGTTCTTTTGGTATTCTACGGAGTCACCTAGTGCAG	9350 fluorescence intensity (a.u.)
TGTTGACTCATGTAACTTTACCCTTCTCTTAGGCCGTGTTCGGAGTCACCTAGTGCAG	8140 fluorescence intensity (a.u.)
GCTGTCTGTACATTTTTTCGTTTTTGCTGGCATGCTTTCTCGGAGTCACCTAGTGCAG	9740 fluorescence intensity (a.u.)
ATGTGGGTGTGTGAATGACAAATGGGTCCCACGTATAACTCGGAGTCACCTAGTGCAG	9700 fluorescence intensity (a.u.)
ATATACACGTGCACACACTCAACCTATCACATGCATCTGACGGAGTCACCTAGTGCAG	9090 fluorescence intensity (a.u.)
CCCTACTTTGTGTGTGTTTTACCGTACCACACCACAAAATCGGAGTCACCTAGTGCAG	8980 fluorescence intensity (a.u.)
AGCCACCGCCGGCCACATCCCTCGCACGTCTGCGCTCGCCCGGAGTCACCTAGTGCAG	9300 fluorescence intensity (a.u.)
TATGTTCGGTATCGTATTAAATCTACTCCTATTTGTACCTCGGAGTCACCTAGTGCAG	8570 fluorescence intensity (a.u.)
ACGTCTCATTCTTCTCAAACACACGACGTCGCCAAAAGCACGGAGTCACCTAGTGCAG	8380 fluorescence intensity (a.u.)
ATGGTCTCACATGTCATACACATATTCCGTCTTGGAGTTCCGGAGTCACCTAGTGCAG	11200 fluorescence intensity (a.u.)
GTCCACGCCTCACCTCGCCTCGGGCGCCTTCTTCTCCAAGCGGAGTCACCTAGTGCAG	10100 fluorescence intensity (a.u.)
GTTTTGTTTGCTTTTCAATTTATTTTAATAACTTTTTCAACGGAGTCACCTAGTGCAG	9400 fluorescence intensity (a.u.)

Sequence	binding signal
CCATGATTATTCTTTTTACTCTACCATGGTCCCAAGTCTCCGGAGTCACCTAGTGCAG	8290 fluorescence intensity (a.u.)
CTACTAATCCGTACTCCATCCGTCTCATTTTAAATACAATCGGAGTCACCTAGTGCAG	10200 fluorescence intensity (a.u.)
CACGTCGGCCCCGCGCGCTGTCCGATCGGCTTGATTGAACCGGAGTCACCTAGTGCAG	9670 fluorescence intensity (a.u.)
CGGGGCTAGGCCGCCGGTGGGGAGGCTTCGGGAGGTGGGGCGGAGTCACCTAGTGCAG	11900 fluorescence intensity (a.u.)
CCCTGCCGATCCGTTCCGGCTCTTGATATGCACCGCACTTCGGAGTCACCTAGTGCAG	8900 fluorescence intensity (a.u.)
AATTATGATCTTTTTAAAATCCACTCTTAACGCTTTTTTCCGGAGTCACCTAGTGCAG	8100 fluorescence intensity (a.u.)
ACCATCTTTCTCTTTACCATGATCATTTTAGCATCTTTGACGGAGTCACCTAGTGCAG	10000 fluorescence intensity (a.u.)
ATCCATGAGCTGTTGCTGCAAATCCTCGCTATTCTTTCCGCGGAGTCACCTAGTGCAG	9050 fluorescence intensity (a.u.)
TTTTTTACTTCTCGGGCTTTCCTTAGTTTCCTTCGTTTTCCGGAGTCACCTAGTGCAG	9700 fluorescence intensity (a.u.)
CACCCGGCGCTGCTTCTCTGCATTTAAATCGAAGCACGCCCGGAGTCACCTAGTGCAG	8910 fluorescence intensity (a.u.)
CCCACCCAAGCAACGGTTCACCTACCCACCAGTAATAAAGCGGAGTCACCTAGTGCAG	8600 fluorescence intensity (a.u.)
TCTCATTTTATCTGATTTTTGTATCGAGTTCTTGTTTATCCGGAGTCACCTAGTGCAG	9400 fluorescence intensity (a.u.)
GTGTAAGACCATCTTCTCCCTATTCTTGGGTTCTTAGTTCCGGAGTCACCTAGTGCAG	8510 fluorescence intensity (a.u.)
ATCCTGGTGCGGCCGCGACCTCACGCACGCATCTCTCTCTCGGAGTCACCTAGTGCAG	9960 fluorescence intensity (a.u.)
ACCACACATCCCCAAATTTCTTTTATGGTACAACTCAAAACGGAGTCACCTAGTGCAG	8590 fluorescence intensity (a.u.)
ATCGTTACCTATTCTTGTACCACATCAATCTGCACCGACGCGGAGTCACCTAGTGCAG	8910 fluorescence intensity (a.u.)
AAACTCAATGCATGCACCATCCCCACTATTTTCTAGCCAACGGAGTCACCTAGTGCAG	8290 fluorescence intensity (a.u.)
CGGCTTCTCGCTTTCTTGTTTCTCGTGGAGTTGCTTTTTTCGGAGTCACCTAGTGCAG	17500 fluorescence intensity (a.u.)
TTATGTATCCGCCATTGCCTGTTGCAACGCAGTCTTTTTCCGGAGTCACCTAGTGCAG	8680 fluorescence intensity (a.u.)
GGTTTTGGTGGAAAGGAGGGGAGGCATGGAGGGCGGCGGCCGGAGTCACCTAGTGCAG	12800 fluorescence intensity (a.u.)
ATATGTTGTCCAAGTCATCGTTGATTTTGAGTTGTGCTGTCGGAGTCACCTAGTGCAG	12200 fluorescence intensity (a.u.)

Given bar-delimited: entries from further up.
Sequence | binding signal
ATCGTTACCTATTCTTGTACCACATCAATCTGCACCGACGCGGAGTCACCTAGTGCAG | 8910 fluorescence intensity (a.u.)
AAACTCAATGCATGCACCATCCCCACTATTTTCTAGCCAACGGAGTCACCTAGTGCAG | 8290 fluorescence intensity (a.u.)
